The supplement of paper PMC12823440, “Inhibitors supercharge kinase turnover through native proteolytic circuits” (Nature, 2025)
This is one part of the list. Hit calls seldom repeat between salt and free forms of one compound.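 In K562 cells expressing nanoluciferase-fused kinases, luminescence was recorded at 4 h intervals between 2 and 18 h, normalized as percent of control with DMSO at 100% and a positive control at 0%. A significant (2 sigma) signal drop marks a time point as decreased. The authors' rule for a hit is not shown and takes in more than the number of time points.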

By UniProt entry, the sequences of proteins in these tests, tags left out. Where a name states a change or a piece, a line headed by the entry shows the natural chain unless it says otherwise.
UniProt P48730: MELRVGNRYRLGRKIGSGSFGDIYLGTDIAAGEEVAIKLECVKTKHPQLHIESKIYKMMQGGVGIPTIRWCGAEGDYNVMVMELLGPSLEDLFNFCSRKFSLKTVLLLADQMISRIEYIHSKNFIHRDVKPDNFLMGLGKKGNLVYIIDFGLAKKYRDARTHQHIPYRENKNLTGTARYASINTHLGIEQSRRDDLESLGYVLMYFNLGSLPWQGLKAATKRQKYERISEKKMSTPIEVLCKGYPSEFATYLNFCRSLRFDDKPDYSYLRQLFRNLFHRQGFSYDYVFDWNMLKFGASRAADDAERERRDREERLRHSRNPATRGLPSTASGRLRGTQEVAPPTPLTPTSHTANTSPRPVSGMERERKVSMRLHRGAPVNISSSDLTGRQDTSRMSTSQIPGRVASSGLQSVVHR
UniProt Q08345: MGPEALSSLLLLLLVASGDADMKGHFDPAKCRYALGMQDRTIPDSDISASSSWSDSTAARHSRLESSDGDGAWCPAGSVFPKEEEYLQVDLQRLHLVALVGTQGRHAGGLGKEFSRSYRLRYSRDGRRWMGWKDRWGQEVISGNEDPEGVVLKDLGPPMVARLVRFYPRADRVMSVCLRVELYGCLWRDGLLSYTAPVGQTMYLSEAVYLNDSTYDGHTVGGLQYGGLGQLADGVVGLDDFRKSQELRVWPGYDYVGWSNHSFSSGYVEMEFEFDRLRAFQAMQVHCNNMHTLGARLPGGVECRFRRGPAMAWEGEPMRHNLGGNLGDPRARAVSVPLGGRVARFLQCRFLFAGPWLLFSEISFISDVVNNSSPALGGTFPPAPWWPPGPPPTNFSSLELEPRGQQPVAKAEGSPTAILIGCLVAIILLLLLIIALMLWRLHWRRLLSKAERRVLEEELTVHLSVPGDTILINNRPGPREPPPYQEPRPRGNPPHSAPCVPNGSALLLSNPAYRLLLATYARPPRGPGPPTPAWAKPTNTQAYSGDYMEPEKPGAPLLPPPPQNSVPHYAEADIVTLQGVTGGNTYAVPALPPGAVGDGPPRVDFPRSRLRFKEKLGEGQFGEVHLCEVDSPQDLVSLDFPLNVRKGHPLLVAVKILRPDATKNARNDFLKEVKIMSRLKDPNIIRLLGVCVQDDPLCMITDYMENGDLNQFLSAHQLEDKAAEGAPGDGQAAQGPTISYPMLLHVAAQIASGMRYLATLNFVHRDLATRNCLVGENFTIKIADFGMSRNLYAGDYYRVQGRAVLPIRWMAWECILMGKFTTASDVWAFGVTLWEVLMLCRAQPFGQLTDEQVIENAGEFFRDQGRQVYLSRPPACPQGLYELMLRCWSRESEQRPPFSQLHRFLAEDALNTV

Biological target: CSNK1D (UniProt P48730)
Experiment: kinase-Nluc reporter destabilization hit call (1 = scored as downregulated) (binary); higher = compound decreases kinase abundance
Settings: K562; 2-18 h

Row | SMILES | kinase-Nluc reporter destabilization hit call
1 | O=c1cc(O)c2ccccc2o1 [4-Hydroxycoumarin] (10 µM) | inactive: 0
2 | CCCCNc1nc(N)c2[nH]c(=O)n(Cc3ccc(C)nc3)c2n1 (10 µM) | inactive: 0
3 | CCCS(=O)(=O)Nc1ccc(F)c(-n2cc(-c3cncnc3)c3nc(N(C)C4CCN(CC)CC4)ccc32)c1F (2 µM) | inactive: 0
4 | C[C@H]1CC[C@]2(NC1)O[C@H]1C[C@H]3[C@@H]4CC[C@H]5C[C@@H](O[C@@H]6O[C@H](CO)[C@H](O[C@@H]7O[C@H](CO)[C@@H](O)[C@H](O[C@@H]8OC[C@@H](O)[C@H](O)[C@H]8O)[C@H]7O[C@@H]7O[C@H](CO)[C@@H](O)[C@H](O)[C@H]7O)[C@H](O)[C@H]6O)CC[C@]5(C)[C@H]4CC[C@]3(C)[C@H]1[C@@H]2C [Tomatine] (2.5 µM) | inactive: 0
5 | Cc1n[nH]cc1-c1cc2nc([C@@H]3CC4CCN3CC4)[nH]c(=O)c2s1 [Simurosertib] (2.5 µM) | inactive: 0
6 | O=Cc1cn(Cc2ccc(Cl)cc2)c2ccccc12 [Oncrasin-1] (10 µM) | inactive: 0
7 | CC(=O)OC(C)(C)/C=C/C(=O)[C@](C)(O)[C@H]1[C@H](O)C[C@@]2(C)[C@@H]3CC=C4[C@@H](C=C(O)C(=O)C4(C)C)[C@]3(C)C(=O)C[C@]12C [Cucurbitacin E] (2.5 µM) | inactive: 0
8 | C[C@@H]1CC[C@H]2[C@@H](C)C(=O)O[C@@H]3O[C@@]4(C)CC[C@@H]1[C@]32OO4 [Artemisinin] (10 µM) | inactive: 0
9 | COc1ccc2c(c1)/C(=C/c1cnc[nH]1)C(=O)N2 (2.5 µM) | inactive: 0
10 | CC(=O)O[C@H]1[C@H]2[C@@H](OC(=O)Cc3ccccc3)[C@@H](C)C[C@]2(OC(C)=O)C(=O)/C(C)=C/[C@@H]2[C@H](CC[C@@]13CO3)C2(C)C [Euphorbiasteroid] (10 µM) | inactive: 0
11 | O=c1[nH]c2ccccc2n1C1CCN(CCCC(c2ccc(F)cc2)c2ccc(F)cc2)CC1 [Pimozide] (2.5 µM) | inactive: 0
12 | CC(=O)Oc1ccc(/C=C/c2cc(OC(C)=O)cc(OC(C)=O)c2)cc1 [Triacetylresveratrol] (10 µM) | inactive: 0
13 | C/C=C(/C)C(=O)O[C@H]1[C@@H]2[C@H](C)C(=O)O[C@@H]2C[C@@H](C)[C@@H]2C=CC(=O)[C@]21C [Brevilin A] (2.5 µM) | inactive: 0
14 | O=[N+]([O-])/C=C/c1ccc2c(c1)OCO2 (2.5 µM) | inactive: 0
15 | O=C(O)c1nn(Cc2ccc(Cl)cc2Cl)c2ccccc12 [Lonidamine] (10 µM) | inactive: 0
16 | CC(=O)c1c(O)c(C)c(O)c(Cc2c(O)c3c(c(C(=O)/C=C/c4ccccc4)c2O)OC(C)(C)C=C3)c1O [Rottlerin] (2 µM) | inactive: 0
17 | Cn1cc(C2=C(c3cn(C4CCN(Cc5ccccn5)CC4)c4ccccc34)C(=O)NC2=O)c2ccccc21 [Enzastaurin] (10 µM) | inactive: 0
18 | Cc1ccccc1-n1c(Cn2ncc3c(N)ncnc32)nc2cccc(C)c2c1=O (10 µM) | inactive: 0
19 | O=c1[nH]c2ccccc2n1C1CCN(Cc2ccc(-c3[nH]c4cc5ncnc5cc4nc3-c3ccccc3)cc2)CC1 [AKT inhibitor VIII] (2.5 µM) | inactive: 0
20 | C=CC(=O)Nc1ccc2[nH]c(=O)n(C3CCN(Cc4ccc(-c5nc6cc[nH]c(=O)c6cc5-c5ccccc5)cc4)CC3)c2c1 [Borussertib] (10 µM) | inactive: 0
21 | C[S+]([O-])/C=C/CCN=C=S (stereo not drawn) [Sulforaphene] (10 µM) | inactive: 0
22 | CC1=C[C@]23C(=O)[C@@H](C=C(CO)[C@@H](O)[C@]2(O)[C@H]1O)[C@H]1[C@@H](C[C@H]3C)C1(C)C [Ingenol] (10 µM) | inactive: 0
23 | CCCCCCCCCCCCCCCCOC[C@H](COP(=O)([O-])OCC[N+](C)(C)C)OC(C)=O (10 µM) | inactive: 0
24 | Cc1ccccc1-n1c(Cn2cnc3c(N)ncnc32)nc2cccc(C)c2c1=O (10 µM) | inactive: 0
25 | COc1ccc2c(c1)[nH]c1c(C)nccc12 [Harmine] (10 µM) | inactive: 0
26 | O=C(N[C@@H](COc1ccc2[nH]c(=O)[nH]c2c1)c1ccccc1)c1cccn(Cc2ccc(F)c(F)c2)c1=O (2.5 µM) | inactive: 0
27 | COc1cc2c(cc1F)C(c1ccccc1Cl)=Nc1c(n[nH]c1C)N2 (0.5 µM) | inactive: 0
28 | N#CC(C#N)=Cc1ccc(O)c(O)c1 [Tyrphostin 23] (10 µM) | inactive: 0
29 | N#CC(C#N)=NNc1cccc(Cl)c1 (2.5 µM) | inactive: 0

Biological target: DDR1 (UniProt Q08345)
Experiment: as above
Settings: K562; 2-18 h

Row | SMILES | kinase-Nluc reporter destabilization hit call
30 | O=c1cc(O)c2ccccc2o1 [4-Hydroxycoumarin] (10 µM) | inactive: 0
31 | CCCCNc1nc(N)c2[nH]c(=O)n(Cc3ccc(C)nc3)c2n1 (10 µM) | inactive: 0
32 | CCCS(=O)(=O)Nc1ccc(F)c(-n2cc(-c3cncnc3)c3nc(N(C)C4CCN(CC)CC4)ccc32)c1F (2 µM) | inactive: 0
33 | C[C@H]1CC[C@]2(NC1)O[C@H]1C[C@H]3[C@@H]4CC[C@H]5C[C@@H](O[C@@H]6O[C@H](CO)[C@H](O[C@@H]7O[C@H](CO)[C@@H](O)[C@H](O[C@@H]8OC[C@@H](O)[C@H](O)[C@H]8O)[C@H]7O[C@@H]7O[C@H](CO)[C@@H](O)[C@H](O)[C@H]7O)[C@H](O)[C@H]6O)CC[C@]5(C)[C@H]4CC[C@]3(C)[C@H]1[C@@H]2C [Tomatine] (2.5 µM) | inactive: 0
34 | Cc1n[nH]cc1-c1cc2nc([C@@H]3CC4CCN3CC4)[nH]c(=O)c2s1 [Simurosertib] (2.5 µM) | inactive: 0
35 | O=Cc1cn(Cc2ccc(Cl)cc2)c2ccccc12 [Oncrasin-1] (10 µM) | inactive: 0
36 | CC(=O)OC(C)(C)/C=C/C(=O)[C@](C)(O)[C@H]1[C@H](O)C[C@@]2(C)[C@@H]3CC=C4[C@@H](C=C(O)C(=O)C4(C)C)[C@]3(C)C(=O)C[C@]12C [Cucurbitacin E] (2.5 µM) | inactive: 0
37 | C[C@@H]1CC[C@H]2[C@@H](C)C(=O)O[C@@H]3O[C@@]4(C)CC[C@@H]1[C@]32OO4 [Artemisinin] (10 µM) | inactive: 0
38 | COc1ccc2c(c1)/C(=C/c1cnc[nH]1)C(=O)N2 (2.5 µM) | inactive: 0
39 | CC(=O)O[C@H]1[C@H]2[C@@H](OC(=O)Cc3ccccc3)[C@@H](C)C[C@]2(OC(C)=O)C(=O)/C(C)=C/[C@@H]2[C@H](CC[C@@]13CO3)C2(C)C [Euphorbiasteroid] (10 µM) | inactive: 0
40 | O=c1[nH]c2ccccc2n1C1CCN(CCCC(c2ccc(F)cc2)c2ccc(F)cc2)CC1 [Pimozide] (2.5 µM) | inactive: 0
41 | CC(=O)Oc1ccc(/C=C/c2cc(OC(C)=O)cc(OC(C)=O)c2)cc1 [Triacetylresveratrol] (10 µM) | inactive: 0
42 | C/C=C(/C)C(=O)O[C@H]1[C@@H]2[C@H](C)C(=O)O[C@@H]2C[C@@H](C)[C@@H]2C=CC(=O)[C@]21C [Brevilin A] (2.5 µM) | inactive: 0
43 | O=[N+]([O-])/C=C/c1ccc2c(c1)OCO2 (2.5 µM) | inactive: 0
44 | O=C(O)c1nn(Cc2ccc(Cl)cc2Cl)c2ccccc12 [Lonidamine] (10 µM) | inactive: 0
45 | CC(=O)c1c(O)c(C)c(O)c(Cc2c(O)c3c(c(C(=O)/C=C/c4ccccc4)c2O)OC(C)(C)C=C3)c1O [Rottlerin] (2 µM) | inactive: 0
46 | Cn1cc(C2=C(c3cn(C4CCN(Cc5ccccn5)CC4)c4ccccc34)C(=O)NC2=O)c2ccccc21 [Enzastaurin] (10 µM) | inactive: 0
47 | Cc1ccccc1-n1c(Cn2ncc3c(N)ncnc32)nc2cccc(C)c2c1=O (10 µM) | inactive: 0
48 | O=c1[nH]c2ccccc2n1C1CCN(Cc2ccc(-c3[nH]c4cc5ncnc5cc4nc3-c3ccccc3)cc2)CC1 [AKT inhibitor VIII] (2.5 µM) | inactive: 0
49 | C=CC(=O)Nc1ccc2[nH]c(=O)n(C3CCN(Cc4ccc(-c5nc6cc[nH]c(=O)c6cc5-c5ccccc5)cc4)CC3)c2c1 [Borussertib] (10 µM) | inactive: 0
50 | C[S+]([O-])/C=C/CCN=C=S (stereo not drawn) [Sulforaphene] (10 µM) | inactive: 0
51 | CC1=C[C@]23C(=O)[C@@H](C=C(CO)[C@@H](O)[C@]2(O)[C@H]1O)[C@H]1[C@@H](C[C@H]3C)C1(C)C [Ingenol] (10 µM) | inactive: 0
52 | CCCCCCCCCCCCCCCCOC[C@H](COP(=O)([O-])OCC[N+](C)(C)C)OC(C)=O (10 µM) | inactive: 0
53 | Cc1ccccc1-n1c(Cn2cnc3c(N)ncnc32)nc2cccc(C)c2c1=O (10 µM) | inactive: 0
54 | COc1ccc2c(c1)[nH]c1c(C)nccc12 [Harmine] (10 µM) | inactive: 0
55 | O=C(N[C@@H](COc1ccc2[nH]c(=O)[nH]c2c1)c1ccccc1)c1cccn(Cc2ccc(F)c(F)c2)c1=O (2.5 µM) | inactive: 0
56 | COc1cc2c(cc1F)C(c1ccccc1Cl)=Nc1c(n[nH]c1C)N2 (0.5 µM) | inactive: 0
57 | N#CC(C#N)=Cc1ccc(O)c(O)c1 [Tyrphostin 23] (10 µM) | inactive: 0
58 | N#CC(C#N)=NNc1cccc(Cl)c1 (2.5 µM) | inactive: 0
